Experimental findings from article PMC9844640 are described below.

Sequences of proteins named here, by UniProt entry; tags and fusion partners are left off.
UniProt Q96SB4: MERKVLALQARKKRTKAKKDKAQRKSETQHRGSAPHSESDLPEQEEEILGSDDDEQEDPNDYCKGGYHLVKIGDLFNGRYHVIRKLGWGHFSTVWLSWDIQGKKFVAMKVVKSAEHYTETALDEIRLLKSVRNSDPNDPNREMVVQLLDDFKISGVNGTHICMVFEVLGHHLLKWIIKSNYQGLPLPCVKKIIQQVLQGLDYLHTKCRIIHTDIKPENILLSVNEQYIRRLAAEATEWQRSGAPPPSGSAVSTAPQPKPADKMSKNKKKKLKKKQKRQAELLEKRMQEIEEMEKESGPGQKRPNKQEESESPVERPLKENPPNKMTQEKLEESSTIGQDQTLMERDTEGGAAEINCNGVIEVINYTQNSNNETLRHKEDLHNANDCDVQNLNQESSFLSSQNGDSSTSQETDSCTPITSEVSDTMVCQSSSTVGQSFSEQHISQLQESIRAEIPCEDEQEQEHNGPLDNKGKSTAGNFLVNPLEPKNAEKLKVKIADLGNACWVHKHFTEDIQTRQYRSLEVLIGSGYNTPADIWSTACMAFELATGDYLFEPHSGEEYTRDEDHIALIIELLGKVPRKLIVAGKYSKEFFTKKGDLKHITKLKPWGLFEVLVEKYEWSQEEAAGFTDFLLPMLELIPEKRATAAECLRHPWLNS
UniProt P78362: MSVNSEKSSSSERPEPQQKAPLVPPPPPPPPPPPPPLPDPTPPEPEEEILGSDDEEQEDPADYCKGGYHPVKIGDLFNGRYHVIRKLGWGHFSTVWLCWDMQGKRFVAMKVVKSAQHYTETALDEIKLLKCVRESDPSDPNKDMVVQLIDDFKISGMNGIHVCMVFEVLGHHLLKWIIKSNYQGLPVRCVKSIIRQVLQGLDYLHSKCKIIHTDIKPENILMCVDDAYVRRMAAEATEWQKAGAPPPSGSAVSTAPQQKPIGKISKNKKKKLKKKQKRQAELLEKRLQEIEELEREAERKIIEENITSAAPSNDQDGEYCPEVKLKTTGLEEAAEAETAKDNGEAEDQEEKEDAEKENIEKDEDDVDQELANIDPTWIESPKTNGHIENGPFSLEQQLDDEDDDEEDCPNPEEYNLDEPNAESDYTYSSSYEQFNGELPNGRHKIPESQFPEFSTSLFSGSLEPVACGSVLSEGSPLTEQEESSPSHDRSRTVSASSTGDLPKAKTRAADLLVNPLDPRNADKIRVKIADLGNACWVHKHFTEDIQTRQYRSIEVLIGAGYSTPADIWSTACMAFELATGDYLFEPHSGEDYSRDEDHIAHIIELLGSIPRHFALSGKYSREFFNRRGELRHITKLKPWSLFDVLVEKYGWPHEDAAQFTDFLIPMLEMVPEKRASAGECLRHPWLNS
UniProt O43399: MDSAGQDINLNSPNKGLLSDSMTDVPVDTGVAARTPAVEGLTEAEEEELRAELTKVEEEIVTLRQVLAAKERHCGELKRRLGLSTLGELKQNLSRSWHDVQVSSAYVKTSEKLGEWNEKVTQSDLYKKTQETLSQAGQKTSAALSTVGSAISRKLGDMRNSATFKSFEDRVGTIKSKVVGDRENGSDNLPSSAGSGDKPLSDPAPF

No constants are given. Whether binding was seen depends on the method and setting. Binding seen in cells or lysates may run through a third protein. Here binding means that the protein was enriched with, or labelled near, the bait; the list need not be complete. Sequences can lack the tags named with a protein.

The labels stand for the following.
T1: S/FLAG/SBP‐tagged TPD52 (UniProt P55327)
T1 sequence: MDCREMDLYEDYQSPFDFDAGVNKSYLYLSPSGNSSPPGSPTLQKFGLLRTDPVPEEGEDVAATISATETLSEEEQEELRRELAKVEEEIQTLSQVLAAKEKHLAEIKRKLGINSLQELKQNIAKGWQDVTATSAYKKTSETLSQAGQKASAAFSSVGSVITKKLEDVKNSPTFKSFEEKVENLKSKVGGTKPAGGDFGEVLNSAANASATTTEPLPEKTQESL

B1: TPD52L1 (protein, UniProt Q16890 1-204)
chain: MEAQAQGLLETEPLQGTDEDAVASADFSSMLSEEEKEELKAELVQLEDEITTLRQVLSAKERHLVEIKQKLGMNLMNELKQNFSKSWHDMQTTTAYKKTHETLSHAGQKATAAFSNVGTAISKKFGDMSYSIRHSISMPAMRNSPTFKSFEERVETTVTSLKTKVGGTNPNGGSFEEVLSSTAHASAQSLAGGSRRTKEEELQC

This assay deals with T1, S/FLAG/SBP‐tagged TPD52. In words: affinity purification with mass spectrometry; tandem affinity purification of S/FLAG/SBP-tagged TPD52 from HEK293T lysate (NETN buffer): streptavidin sepharose, elution with 2 mM biotin, S-protein agarose, 4°C; SDS-PAGE, mass spectrometry.
For the molecule SRPK1 (from UniProt Q96SB4 1-655), the binding result was “binds”.
With SRPK2 (from UniProt P78362 1-688) the entry was “binds”.
With TPD52L2 (from UniProt O43399 1-206) the entry was “binds”.
Under B1 stands “binds”.
